According to the supplement of paper PMC10849652:
The other results are listed elsewhere or left out.

Protein sequences, listed by entry. Tags and fused reporters are not part of them. Lines headed by an entry give the natural chain unless they say otherwise; changes in a name come on top.
UniProt Q6UWU4: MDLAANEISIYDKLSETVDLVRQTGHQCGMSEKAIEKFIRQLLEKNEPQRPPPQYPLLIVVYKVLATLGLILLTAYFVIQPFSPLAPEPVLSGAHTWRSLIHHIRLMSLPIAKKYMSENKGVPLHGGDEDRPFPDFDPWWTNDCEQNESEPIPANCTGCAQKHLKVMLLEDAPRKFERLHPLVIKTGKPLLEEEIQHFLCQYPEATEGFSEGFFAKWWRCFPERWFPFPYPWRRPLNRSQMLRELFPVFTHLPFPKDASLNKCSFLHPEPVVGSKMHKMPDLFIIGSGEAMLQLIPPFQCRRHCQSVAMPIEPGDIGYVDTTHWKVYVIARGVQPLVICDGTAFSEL
UniProt Q9Y6J0: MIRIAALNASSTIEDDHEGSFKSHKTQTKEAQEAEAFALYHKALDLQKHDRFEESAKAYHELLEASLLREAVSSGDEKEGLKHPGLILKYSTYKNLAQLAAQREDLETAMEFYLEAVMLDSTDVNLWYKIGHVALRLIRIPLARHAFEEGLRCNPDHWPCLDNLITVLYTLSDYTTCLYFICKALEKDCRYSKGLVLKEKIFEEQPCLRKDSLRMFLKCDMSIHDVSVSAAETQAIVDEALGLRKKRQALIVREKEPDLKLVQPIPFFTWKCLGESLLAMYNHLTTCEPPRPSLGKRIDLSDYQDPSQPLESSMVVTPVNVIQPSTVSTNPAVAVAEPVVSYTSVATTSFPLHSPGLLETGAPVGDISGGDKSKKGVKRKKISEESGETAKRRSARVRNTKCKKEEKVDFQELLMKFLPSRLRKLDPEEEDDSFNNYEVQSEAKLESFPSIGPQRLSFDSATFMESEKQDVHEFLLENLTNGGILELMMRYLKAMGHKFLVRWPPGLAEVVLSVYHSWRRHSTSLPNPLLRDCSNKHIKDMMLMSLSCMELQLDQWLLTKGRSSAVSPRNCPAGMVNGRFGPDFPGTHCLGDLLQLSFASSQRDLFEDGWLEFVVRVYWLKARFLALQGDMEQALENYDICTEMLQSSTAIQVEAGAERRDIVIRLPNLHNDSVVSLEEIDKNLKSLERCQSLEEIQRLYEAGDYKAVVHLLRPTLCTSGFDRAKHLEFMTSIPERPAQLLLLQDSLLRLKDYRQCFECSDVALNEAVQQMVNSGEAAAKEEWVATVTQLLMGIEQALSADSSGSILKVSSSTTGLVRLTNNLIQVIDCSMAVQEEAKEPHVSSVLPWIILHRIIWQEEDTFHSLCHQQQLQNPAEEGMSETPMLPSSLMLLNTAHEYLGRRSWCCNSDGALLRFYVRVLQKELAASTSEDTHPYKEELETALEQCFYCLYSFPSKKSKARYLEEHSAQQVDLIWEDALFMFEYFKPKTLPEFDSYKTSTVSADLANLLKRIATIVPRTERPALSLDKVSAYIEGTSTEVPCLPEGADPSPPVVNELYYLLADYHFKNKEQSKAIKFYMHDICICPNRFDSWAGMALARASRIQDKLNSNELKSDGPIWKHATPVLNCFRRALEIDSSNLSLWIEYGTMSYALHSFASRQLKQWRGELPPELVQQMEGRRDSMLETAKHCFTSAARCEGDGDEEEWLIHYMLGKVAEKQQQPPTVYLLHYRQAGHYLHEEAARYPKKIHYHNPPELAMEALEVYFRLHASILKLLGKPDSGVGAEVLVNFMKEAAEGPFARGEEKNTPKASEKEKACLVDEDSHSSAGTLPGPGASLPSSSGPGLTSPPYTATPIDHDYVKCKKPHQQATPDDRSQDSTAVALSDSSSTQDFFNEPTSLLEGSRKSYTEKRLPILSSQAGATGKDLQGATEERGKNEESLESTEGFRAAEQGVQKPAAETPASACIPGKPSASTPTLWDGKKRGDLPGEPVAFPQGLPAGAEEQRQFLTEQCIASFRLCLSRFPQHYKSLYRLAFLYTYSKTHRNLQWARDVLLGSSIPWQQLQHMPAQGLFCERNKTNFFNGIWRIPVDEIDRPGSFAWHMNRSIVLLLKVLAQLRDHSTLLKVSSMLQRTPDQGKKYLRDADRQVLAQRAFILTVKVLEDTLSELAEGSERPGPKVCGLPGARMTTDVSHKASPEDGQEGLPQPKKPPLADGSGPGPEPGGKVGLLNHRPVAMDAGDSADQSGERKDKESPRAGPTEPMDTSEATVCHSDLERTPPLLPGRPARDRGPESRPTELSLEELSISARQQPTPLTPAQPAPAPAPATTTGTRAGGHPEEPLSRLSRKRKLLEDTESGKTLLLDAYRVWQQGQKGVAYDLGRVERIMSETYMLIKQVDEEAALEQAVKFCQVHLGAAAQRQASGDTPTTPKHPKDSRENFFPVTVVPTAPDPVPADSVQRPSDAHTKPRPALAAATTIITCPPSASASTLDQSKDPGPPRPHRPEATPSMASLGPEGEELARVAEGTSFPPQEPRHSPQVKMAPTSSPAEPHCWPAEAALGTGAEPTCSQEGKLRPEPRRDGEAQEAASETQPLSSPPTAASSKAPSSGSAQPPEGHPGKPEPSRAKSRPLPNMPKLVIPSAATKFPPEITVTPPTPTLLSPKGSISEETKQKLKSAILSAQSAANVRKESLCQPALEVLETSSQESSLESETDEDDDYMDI
UniProt P22676: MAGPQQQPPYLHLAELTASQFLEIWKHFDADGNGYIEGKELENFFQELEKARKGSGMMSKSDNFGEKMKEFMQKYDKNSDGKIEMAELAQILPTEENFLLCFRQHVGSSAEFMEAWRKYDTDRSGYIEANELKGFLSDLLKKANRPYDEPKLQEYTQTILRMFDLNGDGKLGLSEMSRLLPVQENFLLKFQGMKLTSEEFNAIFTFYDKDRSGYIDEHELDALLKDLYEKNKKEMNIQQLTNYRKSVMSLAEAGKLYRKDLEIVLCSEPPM
UniProt Q6P1X6: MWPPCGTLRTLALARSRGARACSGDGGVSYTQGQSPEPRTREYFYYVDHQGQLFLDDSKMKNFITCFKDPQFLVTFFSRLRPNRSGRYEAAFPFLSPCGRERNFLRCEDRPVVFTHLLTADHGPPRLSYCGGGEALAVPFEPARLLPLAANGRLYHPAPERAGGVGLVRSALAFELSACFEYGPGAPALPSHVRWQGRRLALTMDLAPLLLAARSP
UniProt Q7L1Q6: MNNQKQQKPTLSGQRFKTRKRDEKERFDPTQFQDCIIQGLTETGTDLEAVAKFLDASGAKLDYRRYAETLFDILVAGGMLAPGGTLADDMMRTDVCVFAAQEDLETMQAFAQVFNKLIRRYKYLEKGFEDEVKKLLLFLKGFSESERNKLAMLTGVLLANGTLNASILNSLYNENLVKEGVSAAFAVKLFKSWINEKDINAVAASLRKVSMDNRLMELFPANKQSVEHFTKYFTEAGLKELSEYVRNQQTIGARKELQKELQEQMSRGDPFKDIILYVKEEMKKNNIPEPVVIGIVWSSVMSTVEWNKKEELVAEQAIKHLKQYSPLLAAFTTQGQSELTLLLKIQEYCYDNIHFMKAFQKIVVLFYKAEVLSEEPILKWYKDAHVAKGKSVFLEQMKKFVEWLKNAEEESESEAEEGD
UniProt Q13901: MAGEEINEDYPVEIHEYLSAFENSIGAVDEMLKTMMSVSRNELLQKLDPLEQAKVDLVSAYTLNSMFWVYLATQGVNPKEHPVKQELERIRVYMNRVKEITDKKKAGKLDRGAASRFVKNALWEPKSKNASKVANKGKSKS
UniProt O60566, whole entry, looked up: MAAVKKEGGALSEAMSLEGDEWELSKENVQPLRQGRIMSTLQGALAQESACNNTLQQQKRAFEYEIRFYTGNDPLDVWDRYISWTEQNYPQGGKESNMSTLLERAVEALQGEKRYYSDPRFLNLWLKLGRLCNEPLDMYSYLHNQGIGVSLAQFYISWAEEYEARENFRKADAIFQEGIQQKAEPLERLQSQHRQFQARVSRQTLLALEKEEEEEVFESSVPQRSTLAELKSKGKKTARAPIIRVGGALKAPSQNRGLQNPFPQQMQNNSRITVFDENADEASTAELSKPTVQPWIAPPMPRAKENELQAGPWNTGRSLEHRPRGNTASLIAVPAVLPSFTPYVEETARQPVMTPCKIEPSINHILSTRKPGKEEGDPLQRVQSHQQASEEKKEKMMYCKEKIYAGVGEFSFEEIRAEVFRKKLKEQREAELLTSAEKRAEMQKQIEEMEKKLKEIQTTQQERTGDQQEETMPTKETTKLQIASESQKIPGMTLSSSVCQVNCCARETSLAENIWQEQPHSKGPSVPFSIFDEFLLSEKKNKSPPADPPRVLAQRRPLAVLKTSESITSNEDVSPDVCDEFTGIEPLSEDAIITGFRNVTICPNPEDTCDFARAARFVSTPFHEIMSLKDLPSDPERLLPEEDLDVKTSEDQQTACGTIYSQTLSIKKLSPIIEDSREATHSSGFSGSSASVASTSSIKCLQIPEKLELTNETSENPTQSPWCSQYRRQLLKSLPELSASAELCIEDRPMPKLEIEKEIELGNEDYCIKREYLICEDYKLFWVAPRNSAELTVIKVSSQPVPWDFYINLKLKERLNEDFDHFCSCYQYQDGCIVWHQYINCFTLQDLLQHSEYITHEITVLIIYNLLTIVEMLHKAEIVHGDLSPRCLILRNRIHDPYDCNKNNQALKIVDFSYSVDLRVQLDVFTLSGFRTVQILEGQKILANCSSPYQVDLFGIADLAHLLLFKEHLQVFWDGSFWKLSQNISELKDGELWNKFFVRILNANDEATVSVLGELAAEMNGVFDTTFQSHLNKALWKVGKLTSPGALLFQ
UniProt Q9P1Z2: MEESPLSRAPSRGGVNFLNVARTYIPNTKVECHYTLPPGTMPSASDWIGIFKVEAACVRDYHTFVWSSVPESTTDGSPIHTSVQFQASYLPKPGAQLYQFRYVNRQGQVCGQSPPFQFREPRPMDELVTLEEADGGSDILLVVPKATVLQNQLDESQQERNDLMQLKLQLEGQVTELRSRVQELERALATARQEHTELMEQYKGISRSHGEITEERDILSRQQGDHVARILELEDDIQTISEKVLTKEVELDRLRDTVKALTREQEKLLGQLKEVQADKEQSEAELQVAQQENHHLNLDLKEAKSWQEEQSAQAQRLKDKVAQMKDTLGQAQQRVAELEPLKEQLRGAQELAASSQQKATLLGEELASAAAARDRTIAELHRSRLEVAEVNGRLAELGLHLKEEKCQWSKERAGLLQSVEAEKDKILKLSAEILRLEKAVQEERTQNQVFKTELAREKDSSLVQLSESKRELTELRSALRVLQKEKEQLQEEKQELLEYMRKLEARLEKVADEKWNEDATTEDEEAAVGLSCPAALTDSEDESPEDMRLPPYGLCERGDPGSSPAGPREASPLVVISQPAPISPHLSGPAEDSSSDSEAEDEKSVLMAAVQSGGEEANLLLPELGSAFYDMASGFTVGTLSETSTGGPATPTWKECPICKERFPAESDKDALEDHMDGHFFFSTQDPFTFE
UniProt Q9BTV7: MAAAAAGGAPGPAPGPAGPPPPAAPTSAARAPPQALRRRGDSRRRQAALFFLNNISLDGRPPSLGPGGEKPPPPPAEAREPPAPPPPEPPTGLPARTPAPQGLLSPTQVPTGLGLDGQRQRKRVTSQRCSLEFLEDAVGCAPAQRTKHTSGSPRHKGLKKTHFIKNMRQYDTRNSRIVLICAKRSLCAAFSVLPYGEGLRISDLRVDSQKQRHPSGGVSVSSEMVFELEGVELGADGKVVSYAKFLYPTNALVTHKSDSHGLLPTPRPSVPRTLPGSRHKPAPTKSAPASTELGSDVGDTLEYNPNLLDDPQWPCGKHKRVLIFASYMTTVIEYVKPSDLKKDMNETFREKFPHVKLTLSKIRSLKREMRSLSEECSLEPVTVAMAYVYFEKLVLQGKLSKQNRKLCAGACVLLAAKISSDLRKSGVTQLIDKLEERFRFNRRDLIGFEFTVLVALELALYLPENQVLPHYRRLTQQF

How the values were obtained:
Test in all cases: log2 fold change, soluble protein after heating vs DMSO (PISA); higher = thermal stabilisation; K562 lysate, 10 uM; active = over 0.2 and 3.5 SD of the protein, either way, in both replicates (recomputed)
[1] = compound: C1=CC=C(C=C1)[C@H](COC2=CC3=C(C=C2)NC(=O)N3)NC(=O)C4=CC=CN(C4=O)CC5=CC(=C(C=C5)F)F
Outline: (§1)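 Thermal stability, expressed as log-two fold change relative to solvent controls, is given from duplicates. Crude K562 extract in PBS pH 7.4 with 1 mM MgCl2, at 1 mg/mL protein, was treated with 10 μM compound for 30 min and heated in aliquots for 3 min across 48°C-58°C. After pooling, adjustment to 0.5% NP-40 at 4°C and centrifugation at 21,000xg for 90 min, supernatant protein was measured by TMTpro 16plex LC-MS/MS with channel sums equalised.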

[2] = compound: CC1=C(SC2=C1C(=N[C@H](C3=NN=C(N32)C)CC(=O)N)C4=CC=C(C=C4)Cl)C
Outline: as §1

[3] = compound: CC1=C2C(=CC=C1)N=C(N(C2=O)C3=CC=CC=C3C)CN4C=NC5=C(N=CN=C54)N
Outline: as §1

[4] = compound: Cc1sc2c(c1C)C(c1ccc(Cl)cc1)=N[C@@H](CC(=O)OC(C)(C)C)c1nnc(C)n1-2
Outline: as §1

[5] = compound: c1ccc([C@@H]2C[C@H]2NC2CCNCC2)cc1
Outline: as §1

Measured: log2 fold change

C6orf89 isoform 2 (UniProt Q6UWU4)
inactive: [1] 0.058 | [2] -0.065 | [3] -0.036 | [4] -0.033 | [5] 0.047

CABIN1 (UniProt Q9Y6J0)
inactive: [1] -0.008 | [2] -0.11 | [3] 0.035 | [4] -0.003 | [5] -0.067

CALB2 (UniProt P22676)
inactive: [1] -0.067 | [2] -0.053 | [3] 0.009 | [4] -0.007 | [5] 0.013

C8orf82 (UniProt Q6P1X6)
inactive: [1] 0.076 | [2] -0.049 | [3] 0.011 | [4] -0.011 | [5] -0.103

BZW1 isoform 3 (UniProt Q7L1Q6)
inactive: [1] -0.038 | [2] 0.014 | [3] 0.001 | [4] 0.004 | [5] 0.032

C1D (UniProt Q13901)
inactive: [1] 0.03 | [2] -0.043 | [3] 0.078 | [4] -0.069 | [5] -0.014

BUB1B isoform 3 (UniProt O60566)
inactive: [1] -0.013 | [2] -0.005 | [3] 0.027 | [4] -0.003 | [5] 0.02

CALCOCO1 (UniProt Q9P1Z2)
inactive: [1] -0.006 | [2] 0.031 | [3] 0.042 | [4] 0.029 | [5] 0.053

CABLES2 (UniProt Q9BTV7)
inactive: [1] 0.006 | [2] -0.007 | [3] -0.131
